Measurements published in PubChem BioAssay AID330 (DTP/NCI, 2004).
The list does not hold the whole screen: it gathers tests that were run many times, whatever their T/C, doses with no T/C, and many T/C values between a quarter and a half above the control. Other doses and runs of a compound stand elsewhere. T/C: endpoint of the treated group in % of that of the vehicle group. Some entries give survivors of the animals treated and no T/C: the source files T/C as zero there, which appears to mark a toxic dose or a test without result, not a measured value. Some survivor counts are full or nearly so, which does not show that the dose was tolerated: the source hardly ever lists a survival T/C far under the control, and the zero likely stands for such cases as well. Survivors were counted at the toxicity check, usually on the fifth day, unless a day is given; later deaths do not show. Schedules are NCI's codes, read here as Q, the interval in days (D) or hours (H), X, the number of doses. Some doses were run more than once; their values stand side by side, smallest first. For survival time, this PubChem deposit counts one and a half times the control or more as active, and values a quarter to a half above the control carry no call in these data; other NCI protocols may use other cut-offs.

Test system: P388 leukemia ip, CD2F1 mice, survival T/C
Assay: NCI In Vivo Anticancer Drug Screen. Data for tumor model P388 Leukemia (intraperitoneal) in CD2F1 (CDF1) mice
Conditions: T/C endpoint: median survival time, higher T/C = longer survival
[1] = dose: 100.0 mg/kg/injection, schedule: Q01DX005 (ip), vehicle: saline with Tween-80
[2] = dose: 200.0 mg/kg/injection, schedule: Q01DX005 (ip), vehicle: saline with Tween-80
[3] = dose: 60.0 mg/kg/injection, schedule: Q01DX005 (ip), vehicle: saline with Tween-80
[4] = dose: 120.0 mg/kg/injection, schedule: Q01DX005 (ip), vehicle: saline with Tween-80
[5] = dose: 240.0 mg/kg/injection, schedule: Q01DX005 (ip), vehicle: saline with Tween-80
[6] = dose: 100.0 mg/kg/injection, schedule: Q01DX009 (ip), vehicle: saline with Tween-80
[7] = dose: 200.0 mg/kg/injection, schedule: Q01DX009 (ip), vehicle: saline with Tween-80
[8] = dose: 200.0 mg/kg/injection, schedule: Q01DX009 (ip), vehicle: Klucel (hydroxypropylcellulose) (HPC)
[9] = dose: 42.25 mg/kg/injection, schedule: Q04DX002 (ip), vehicle: suspension in saline
[10] = dose: 84.5 mg/kg/injection, schedule: Q04DX002 (ip), vehicle: suspension in saline
[11] = dose: 100.0 mg/kg/injection, schedule: Q01DX005 (ip), vehicle: Klucel (hydroxypropylcellulose) (HPC)

For `COc1cccc2c1C(=O)c1c(O)c3c(c(O)c1C2=O)C[C@@](O)(C(=O)CO)C[C@@H]3OC1CC(N2CCCCC2)C(O)C(C)O1` (stereo partly specified), the T/C (dose: 0.39 mg/kg/injection, schedule: Q01DX009 (ip), vehicle: water) was 137 % of control, the T/C (dose: 1.56 mg/kg/injection, schedule: Q01DX009 (ip), vehicle: water) was 147 % of control and the survivor count (dose: 3.13 mg/kg/injection, schedule: Q01DX009 (ip), vehicle: water) was 6 of 6. For the same compound, the survivor count (dose: 6.25 mg/kg/injection, schedule: Q01DX009 (ip), vehicle: water) was 4 of 6 and 6 of 6, the survivor count (dose: 12.5 mg/kg/injection, schedule: Q01DX009 (ip), vehicle: water) was 0 of 6 and 3 of 6 and the T/C (dose: 18.8 mg/kg/injection, schedule: Q04DX003 (ip), vehicle: water) was 148 % of control. For the same compound, the survivor count (dose: 25.0 mg/kg/injection, schedule: Q01DX009 (ip), vehicle: water) was 0 of 6 and 1 of 6.
With `CN(C)CCC(=O)C(=C/C=C/c1ccccc1)C(=O)CCN(C)C` the T/C (dose: 50.0 mg/kg/injection, schedule: Q01DX005 (ip), vehicle: saline with Tween-80) was 132 % of control, the T/C [1] was 132 % of control and the survivor count [2] was 0 of 5.
In the case of `O=C(c1ccccc1)c1c(CO[N+](=O)[O-])n([O-])c2ccccc2[n+]1=O`, the T/C (dose: 15.0 mg/kg/injection, schedule: Q01DX005 (ip), vehicle: saline with Tween-80) is reported as 130 % of control, the T/C (dose: 30.0 mg/kg/injection, schedule: Q01DX005 (ip), vehicle: saline with Tween-80) is reported as 138 % of control and the survivor count [3] is reported as 5 of 6. The survivor count [4] was 6 of 6 and the survivor count [5] was 0 of 6.
With `CC[N+](C)(CC)CCl` the survivor count (dose: 30.0 mg/kg/injection, schedule: Q01DX005 (ip), vehicle: saline) was 2 of 6, the survivor count [3] was 0 of 6 and the survivor count [4] was 0 of 6. For the same compound, the survivor count [5] was 0 of 6.
With `ClCCCN1CCN(CCCCl)CC1` the T/C (dose: 50.0 mg/kg/injection, schedule: Q01DX009 (ip), vehicle: distilled water + alcohol) was 132 and 142 % of control and the survivor count (dose: 200.0 mg/kg/injection, schedule: Q01DX009 (ip), vehicle: distilled water + alcohol) was 1 of 6.
`CCCCCCCCCCC(O)Cn1ccnc1` (stereo unspecified) was tested, and the survivor count (dose: 50.0 mg/kg/injection, schedule: Q01DX009 (ip), vehicle: saline with Tween-80) was 4 of 6, the survivor count [6] was 1 of 6 and the survivor count [7] was 0 of 6.
With `C[N+](C)(C)C1(Cc2ccccc2)c2ccccc2-c2ccc(Cl)cc21` (stereo unspecified) the survivor count (dose: 100.0 mg/kg/injection, schedule: Q01DX009 (ip), vehicle: Klucel (hydroxypropylcellulose) (HPC)) was 1 of 6 and the survivor count [8] was 0 of 6.
In the case of `CC(Nc1nccs1)Nc1nccs1`, the survivor count [7] is reported as 3 of 6.
In the case of `CN=C1N=C(c2ccc(C(C)(C)C)cc2)C(O)(c2ccc(C(C)(C)C)cc2)N1` (stereo unspecified), the survivor count (dose: 100.0 mg/kg/injection, schedule: Q04DX002 (ip), vehicle: saline with Tween-80) is reported as 2 of 6.
With `O=C1CCC2ON=C(Br)C12` (stereo unspecified) the T/C (dose: 160.0 mg/kg/injection, schedule: Q01DX005 (ip), vehicle: distilled water + Tween-80) was 139 % of control.
For `COP(=S)(OC)SCc1cc(=O)n2c(C)cccc2n1`, the survivor count (dose: 50.0 mg/kg/injection, schedule: Q01DX005 (ip), vehicle: distilled water + alcohol) was 1 of 6, the survivor count (dose: 100.0 mg/kg/injection, schedule: Q01DX005 (ip), vehicle: distilled water + alcohol) was 0 of 6 and the survivor count (dose: 200.0 mg/kg/injection, schedule: Q01DX005 (ip), vehicle: distilled water + alcohol) was 0 of 6.
With `O=C1NC(=O)C2C(=O)NC(=O)C1C21CCc2ccccc21` (stereo unspecified) the survivor count [5] was 6 of 6.
For `CC1(C)OCC(C2OC(C)(C)OC2C(O)c2ccco2)O1` (stereo unspecified), the T/C (dose: 200.0 mg/kg/injection, schedule: Q01DX009 (ip), vehicle: distilled water + Tween-80) was 126 % of control.
In the case of `COCC(=O)c1ccc([N+](=O)[O-])cc1`, the survivor count (dose: 50.0 mg/kg/injection, schedule: Q01DX009 (ip), vehicle: saline) is reported as 6 of 6.
With `CC(=O)Nc1c(Cl)c(Cl)c2c(c1Cl)Cc1cc(Cl)c(Cl)cc1-2` the survivor count [6] was 3 of 6, the survivor count [7] was 2 of 6 and the survivor count (dose: 400.0 mg/kg/injection, schedule: Q01DX009 (ip), vehicle: saline with Tween-80) was 0 of 6.
For `O=c1nc2n(CC(O)CN3CCCCC3)c3cc(Cl)ccc3nc-2c(=O)[nH]1` (stereo unspecified), the survivor count (dose: 25.0 mg/kg/injection, schedule: Q01DX005 (ip), vehicle: saline) was 2 of 6, the survivor count (dose: 50.0 mg/kg/injection, schedule: Q01DX005 (ip), vehicle: saline) was 0 of 6 and the survivor count (dose: 100.0 mg/kg/injection, schedule: Q01DX005 (ip), vehicle: saline) was 0 of 6. The survivor count (dose: 200.0 mg/kg/injection, schedule: Q01DX005 (ip), vehicle: saline) was 0 of 6.
`O=C(NCCN1CCCCC1)c1ccc(Cl)cc1Cl` was tested, and the survivor count [8] was 2 of 6.
With `NNC(=O)CNc1ccccc1Br` the survivor count (dose: 240.0 mg/kg/injection, schedule: Q01DX005 (ip), vehicle: Klucel (hydroxypropylcellulose) (HPC)) was 0 of 6.
In the case of `O=c1c(O)c(O)c1=O.[NH2-].[NH2-].[NH2-].[NH2-].[NH2-].[Ru+5]`, the T/C (dose: 21.12 mg/kg/injection, schedule: Q04DX002 (ip), vehicle: suspension in saline, evaluated on day 20) is reported as 127 % of control, the T/C (dose: 21.12 mg/kg/injection, schedule: Q04DX002 (ip), vehicle: suspension in saline, evaluated on day 30) is reported as 140 % of control and the T/C [9] is reported as 127 % of control. The survivor count [9] was 5 of 6, the survivor count (dose: 84.5 mg/kg/injection, schedule: Q04DX002 (ip), vehicle: saline) was 1 of 6 and the T/C [10] was 134 % of control. For the same compound, the survivor count [10] was 0 of 6, the survivor count (dose: 169.0 mg/kg/injection, schedule: Q04DX002 (ip), vehicle: saline) was 0 of 6 and the survivor count (dose: 338.0 mg/kg/injection, schedule: Q04DX002 (ip), vehicle: saline) was 0 of 6.
For `COc1nc2cc3c(cc2n2cccc12)oc1ccccc13`, the survivor count [2] was 3 of 6.
With `CCN(CC)c1cc(C(=O)O)cc(N(CC)CC)n1` the T/C [11] was 132 % of control, the survivor count [11] was 1 of 6 and 2 of 6 and the survivor count (dose: 100.0 mg/kg/injection, schedule: Q01DX005 (ip), vehicle: sodium bicarbonate) was 3 of 6. The survivor count (dose: 200.0 mg/kg/injection, schedule: Q01DX005 (ip), vehicle: Klucel (hydroxypropylcellulose) (HPC)) was 0 of 6 and the survivor count (dose: 200.0 mg/kg/injection, schedule: Q01DX005 (ip), vehicle: sodium bicarbonate) was 0 of 6.
For `COc1ccc2cc(N3CCCC3)ccc2c1`, the survivor count (dose: 200.0 mg/kg/injection, schedule: Q04DX003 (ip), vehicle: saline) was 6 of 6.
For `CCOC(=O)c1cc(-c2ccccc2)c(=O)c(OC)nc1-c1ccccc1`, the survivor count [1] was 5 of 5 and the survivor count [2] was 0 of 5.
With `CC1(C)N=C(N)N=C(N)N1c1cccc(CCCCOc2ccccc2)c1` the T/C (dose: 8.0 mg/kg/injection, schedule: Q01DX009 (ip), vehicle: saline with Tween-80) was 137 % of control, the T/C (dose: 12.0 mg/kg/injection, schedule: Q01DX009 (ip), vehicle: saline with Tween-80) was 133 % of control and the survivor count (dose: 25.0 mg/kg/injection, schedule: Q04DX003 (ip), vehicle: saline with Tween-80) was 6 of 6.
With `CCNC(=O)N(Cc1ccccc1)Cc1ccccc1` the survivor count (dose: 200.0 mg/kg/injection, schedule: Q01DX009 (ip), vehicle: other) was 3 of 6.
With `CC(=O)OCC1OC(n2ncc(=O)[nH]c2=O)C(OC(C)=O)C1OC(C)=O` (stereo unspecified) the T/C [6] was 127 % of control, the T/C (dose: 200.0 mg/kg/injection, schedule: Q01DX009 (ip), vehicle: saline with Tween-80, evaluated on day 20) was 127 % of control and the T/C (dose: 200.0 mg/kg/injection, schedule: Q01DX009 (ip), vehicle: saline with Tween-80, evaluated on day 30) was 127 % of control. For the same compound, the T/C (dose: 400.0 mg/kg/injection, schedule: Q01DX009 (ip), vehicle: saline with Tween-80, evaluated on day 20) was 127 % of control and the T/C (dose: 400.0 mg/kg/injection, schedule: Q01DX009 (ip), vehicle: saline with Tween-80, evaluated on day 30) was 127 % of control.
